Experimental data taken from patent US20170275630.
For part of these data: Results from cells or extracts need not show a direct contact. For part of these data: Negatives hold for the conditions tested. For part of these data: A weaker result is weaker than the reference pair of the same experiment.

What was measured:
[1] = target: HGF receptor (c-Met, MET) (UniProt P08581); assay: flow cytometry; details: SNU-5 cells, 21 C, 15 min, protein on the cell surface
[2] = target: HGF receptor (c-Met, MET) (UniProt P08581); assay: activity in cells; details: protein in cells, folded or branched DNA

ATCAGGCTGGATGGTAGCTCGGTCGGGGTGGGTGGGTTGGCAAGTCTGAT [SL1 (Stem-Loop1)]
binding result ([1]; signal rises from 2.5 nM, almost no change at 1000 nM, label: FITC (binding assays), folded or branched DNA): binds
functional effect of the aptamer ([2]; dose-dependent inhibition of c-Met phosphorylation by 110 pM HGF, A549, SL1 1-1000 nM, 1 uM also inhibits SUIT-2 migration): active

ATCAGGCTGGATGGTAGCTCGGTCGGGGTGGGTGGGTTGGCAAGTCTGATTTTTTTTTTTCGTGTCACGGATGGTAGCTCGGTCGGGGTGGGTGGGTTGGCAGTGACACG [SL1 dimer_10 (ss10)]
functional effect of the aptamer ([2]; variant of SL1 dimer_5, dose not given here): active

CGATCAGTCTAGCATCCATCTATCAGGCTGGATGGTAGCTCGGTCGGGGTGGGTGGGTTGGCAAGTCTGAT / GATGGATGCTAGACTGATCGTATCAGGCTGGATGGTAGCTCGGTCGGGGTGGGTGGGTTGGCAAGTCTGAT [SL1_A/SL1_B dimer]
functional effect of the aptamer ([2]; induces c-Met phosphorylation in A549, lost when Comp_A/Comp_B block dimer formation, variant of SL1 (Stem-Loop1), dose not given here): active

GGATGGTAGCTCGGTCGGGGTGGGTGGGTTGG [G-loop]
binding result ([1]; 100 nM, above cell control, below SL1, label: FITC, folded or branched DNA, variant of SL1 (Stem-Loop1)): binds more weakly

TAGTCTGAACGGTTGGGTGGGTGGGGCTGGCTCGATGGTAGGTCGGACTA [Stem-Loop1 reverse sequence]
binding result ([1]; 100 nM, same as untreated cells, label: FITC, single-stranded DNA, variant of SL1 (Stem-Loop1)): no binding
